Values quoted from earlier work in US20250295646A1, “METHODS OF USE OF T-TYPE CALCIUM CHANNEL MODULATORS” (Praxis Precision Medicines, Inc., priority 2022, published 2025).
Some of these results come from one statement about several compounds together.

Conditions: essential tremor, average of less than 11 weeks; Ferreira et al.; cited from earlier work

CCC1(c2ccccc2)C(=O)NCNC1=O [primidone]
intolerability during relatively short trials: more than 30%

CC1(C)O[C@@H]2[C@@H](CO[C@@]3(COS(N)(=O)=O)OC(C)(C)O[C@@H]23)O1 [topiramate]
intolerability during relatively short trials: more than 30%
